Data on one compound can be found in article PMC2246842, “Decrease of prostaglandin I2 binding sites in thyroid cancer” (British Journal of Cancer, 1988).

Common to all, as to parameters: species or system human
The subject of series [1] is prostaglandin I2 (prostacyclin, PGI2) binding sites. Put plainly: [3H]iloprost saturation binding (vacuum filtration, Scatchard analysis) on normal thyroid membrane fraction. The conditions noted are these: normal thyroid tissue. Here is the method: (§1) For comparative studies saturation experi- ments were performed. […] Values are given as x +s.d. Student's t-test was employed for paired data. […] Each point represents the average of 6 separate experiments. […] Each point represents the average of 5 separate determinations.

Series [2] shares this test system. The series is described as follows: [3H]iloprost saturation binding (vacuum filtration, Scatchard analysis) on well differentiated thyroid cancer membrane fraction. The method, then: as §1
Series [3] shares this test system. Put plainly: [3H]iloprost saturation binding (vacuum filtration, Scatchard analysis) on less differentiated and anaplastic thyroid cancer membrane fraction. Here is the method: as §1

SMILES strings stand for the structures.

With `CC#CCC(C)[C@H](O)/C=C/[C@@H]1[C@H]2C/C(=C/CCCC(=O)O)C[C@H]2C[C@H]1O` (stereo partly drawn) [[3H]iloprost, iloprost], the “binding capacity (Bmax), low affinity binding sites” value in series [1] (4 C, 40 min, mean +/- s.d.) is reported as 5.1+1.6 pmol mg-1 membrane protein. For the same compound, the “percentage of specific [3H]iloprost binding” value in series [1] (high affinity binding range) is reported as around 80%. Further, the “low affinity binding sites” value in series [2] and in series [3] was “not demonstrable” throughout. The “specific binding at [3H]iloprost concentrations > 100 nM” value is “no specific binding was observed” in series [2] (4 C, 40 min) and “no specific binding was observed” in series [3] (4 C, 40 min).
